Data as given in PubChem BioAssay AID1224828 (NIAID, 2016)
Aim: 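Knock-downs that increase or decrease LPS-induced p65 nuclear translocation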 (primary screen). Cells: mouse RAW264.7 G9 macrophage reporter cells (GFP-p65, Tnf promoter-mCherry). Reagents: siRNA pool against mouse genes, 100 nM. Timing: 2 days siRNA transfection, then 40 min LPS before fixation. Conditions: LPS (Salmonella minnesota R595) at 10 ng/ml. Measured: 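Microscopy ratio of nuclear to perinuclear-ring GFP-p65 signal, scaled to the plate median; gene score is the average of two replicate robust z-scores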. Reading the numbers: p65 translocation robust z-score: higher = more nuclear NF-kappaB p65 after LPS than the plate median; nuclear/cytoplasmic p65 ratio: higher = more nuclear NF-kappaB p65. Active means: 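Active if robust z is above 3.3 (negative regulators) or below -1.56, the Tlr4 control median (positive regulators); activity score 50 or more; control wells not called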. Meaning of the calls: active = hit (p65 shift raised or lowered); inactive = no clear change.
The whole screen tested about 17,000 reagents; this is a random part of them. Over the whole deposit, 762 (4.5%) got an active call. 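Active calls include both raised and lowered p65 entry, mostly lowered; wells with fewer than 50 cells lack a z-score.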 The raw values are shown without normalisation. Entries without a mark were called inactive.

Depletion of Insl6 came out at: p65 translocation robust z-score -0.93; nuclear/cytoplasmic p65 ratio, rep 1 = 1.31; nuclear/cytoplasmic p65 ratio, rep 2 = 1.3; low cell count flag enough cells to score.
After knock-down of Cop1, the record shows p65 translocation robust z-score 0.18; nuclear/cytoplasmic p65 ratio, rep 1 = 1.68; nuclear/cytoplasmic p65 ratio, rep 2 = 1.75; low cell count flag enough cells to score.
Ly6c1 gave p65 translocation robust z-score -0.88; nuclear/cytoplasmic p65 ratio, rep 1 = 1.63; nuclear/cytoplasmic p65 ratio, rep 2 = 1.37; low cell count flag enough cells to score.
Depletion of Rfx4 resulted in: p65 translocation robust z-score -0.52; nuclear/cytoplasmic p65 ratio, rep 1 = 1.51; nuclear/cytoplasmic p65 ratio, rep 2 = 1.38; low cell count flag enough cells to score.
Against Med28, the values are nuclear/cytoplasmic p65 ratio, rep 1 = 1.44; nuclear/cytoplasmic p65 ratio, rep 2 = 1.32; low cell count flag fewer than 50 cells per well; well left out of scoring.
For Slc13a4 the deposit lists p65 translocation robust z-score -0.72; nuclear/cytoplasmic p65 ratio, rep 1 = 1.2; nuclear/cytoplasmic p65 ratio, rep 2 = 1.17; low cell count flag enough cells to score.
4933436I01Rik showed p65 translocation robust z-score -1.64 (active); nuclear/cytoplasmic p65 ratio, rep 1 = 1.37; nuclear/cytoplasmic p65 ratio, rep 2 = 1.24; low cell count flag enough cells to score.
After knock-down of Or8h9 the results were p65 translocation robust z-score 0.18; nuclear/cytoplasmic p65 ratio, rep 1 = 1.69; nuclear/cytoplasmic p65 ratio, rep 2 = 1.6; low cell count flag enough cells to score.
Depletion of Cgas gave: p65 translocation robust z-score 0.02; nuclear/cytoplasmic p65 ratio, rep 1 = 1.45; nuclear/cytoplasmic p65 ratio, rep 2 = 1.39; low cell count flag enough cells to score.
After knock-down of Thoc3, the record shows p65 translocation robust z-score -1.32; nuclear/cytoplasmic p65 ratio, rep 1 = 1.13; nuclear/cytoplasmic p65 ratio, rep 2 = 1.1; low cell count flag enough cells to score.
Silencing of Elavl2 gave: p65 translocation robust z-score 0.35; nuclear/cytoplasmic p65 ratio, rep 1 = 1.55; nuclear/cytoplasmic p65 ratio, rep 2 = 1.38; low cell count flag enough cells to score.
Naglu scored p65 translocation robust z-score -0.13; nuclear/cytoplasmic p65 ratio, rep 1 = 1.34; nuclear/cytoplasmic p65 ratio, rep 2 = 1.41; low cell count flag enough cells to score.
Vmn1r237 gave p65 translocation robust z-score -1.57 (active); nuclear/cytoplasmic p65 ratio, rep 1 = 1.32; nuclear/cytoplasmic p65 ratio, rep 2 = 1.32; low cell count flag enough cells to score.
After knock-down of Usp50, the record shows p65 translocation robust z-score -0.11; nuclear/cytoplasmic p65 ratio, rep 1 = 1.22; nuclear/cytoplasmic p65 ratio, rep 2 = 1.33; low cell count flag enough cells to score.
Knock-down of Arpc5l resulted in: p65 translocation robust z-score -0.41; nuclear/cytoplasmic p65 ratio, rep 1 = 1.6; nuclear/cytoplasmic p65 ratio, rep 2 = 1.39; low cell count flag enough cells to score.
With knock-down of Prss45, the screen gave p65 translocation robust z-score -0.38; nuclear/cytoplasmic p65 ratio, rep 1 = 1.67; nuclear/cytoplasmic p65 ratio, rep 2 = 1.48; low cell count flag enough cells to score.
Against Sgsm2, the values are p65 translocation robust z-score -1.6 (active); nuclear/cytoplasmic p65 ratio, rep 1 = 1.31; nuclear/cytoplasmic p65 ratio, rep 2 = 1.34; low cell count flag enough cells to score.
Against Proser1, the entry reads p65 translocation robust z-score 2.25; nuclear/cytoplasmic p65 ratio, rep 1 = 1.59; nuclear/cytoplasmic p65 ratio, rep 2 = 1.87; low cell count flag enough cells to score.
For F2rl3, the entry reads nuclear/cytoplasmic p65 ratio, rep 1 = 1.44; nuclear/cytoplasmic p65 ratio, rep 2 = 1.43; low cell count flag fewer than 50 cells per well; well left out of scoring.
Silencing of Ap1ar came out at: p65 translocation robust z-score -0.43; nuclear/cytoplasmic p65 ratio, rep 1 = 1.48; nuclear/cytoplasmic p65 ratio, rep 2 = 1.81; low cell count flag enough cells to score.
Silencing of Or10h1b came out at: nuclear/cytoplasmic p65 ratio, rep 1 = 1.48; nuclear/cytoplasmic p65 ratio, rep 2 = 1.38; low cell count flag fewer than 50 cells per well; well left out of scoring.
Against Mtor, the values are nuclear/cytoplasmic p65 ratio, rep 1 = 1.45; nuclear/cytoplasmic p65 ratio, rep 2 = 1.48; low cell count flag fewer than 50 cells per well; well left out of scoring.
Tnrc18 showed p65 translocation robust z-score 0.73; nuclear/cytoplasmic p65 ratio, rep 1 = 1.74; nuclear/cytoplasmic p65 ratio, rep 2 = 1.49; low cell count flag enough cells to score.
Fto gave p65 translocation robust z-score 1.36; nuclear/cytoplasmic p65 ratio, rep 1 = 1.82; nuclear/cytoplasmic p65 ratio, rep 2 = 1.63; low cell count flag enough cells to score.
After knock-down of Riok3, the record shows p65 translocation robust z-score -0.56; nuclear/cytoplasmic p65 ratio, rep 1 = 1.68; nuclear/cytoplasmic p65 ratio, rep 2 = 1.24; low cell count flag enough cells to score.
E230015B07Rik showed nuclear/cytoplasmic p65 ratio, rep 1 = 1.01; nuclear/cytoplasmic p65 ratio, rep 2 = 1.24; low cell count flag fewer than 50 cells per well; well left out of scoring.
For Nxf1 the deposit lists nuclear/cytoplasmic p65 ratio, rep 1 = 0; nuclear/cytoplasmic p65 ratio, rep 2 = 0.944; low cell count flag fewer than 50 cells per well; well left out of scoring.

2 entries already listed, arranged by “nuclear/cytoplasmic p65 ratio, rep 1”, lowest first.
F2rl3 — nuclear/cytoplasmic p65 ratio, rep 1 = 1.44; nuclear/cytoplasmic p65 ratio, rep 2 = 1.43; low cell count flag = fewer than 50 cells per well; well left out of scoring
Proser1 — p65 translocation robust z-score = 2.25; nuclear/cytoplasmic p65 ratio, rep 1 = 1.59; nuclear/cytoplasmic p65 ratio, rep 2 = 1.87; low cell count flag = enough cells to score
